The assay deals with GRB2 (human (endogenous in HUVEC)), P62993. Put plainly: co-IP; endogenous GRB2 immunoprecipitated with anti-Grb2 antibody (20 µg/ml) and Protein G Sepharose from lysates of HUVECs transduced with Ad-shScr or Ad-shLrrc8a, serum starved, with or without insulin; lysis buffer 150 mM NaCl, 20 mM HEPES, 1% NP-40, 5 mM EDTA, pH 7.5; overnight at 4°C; washed three times with RIPA buffer; immunoblot. The conditions noted are these: remark: other sources report otherwise.

The record followed here is article PMC7997661.

Results are given in words; binding and its absence hold for the method and conditions named. Binding seen in cells or lysates may run through a third protein. Some results given as binding are weak or reduced against the parent protein; the word gives no strength.

B1: caveolin-1 (Cav1), Q03135 1-178 (protein)
chain: MSGGKYVDSEGHLYTVPIREQGNIYKPNNKAMADELSEKQVYDAHTKEIDLVNRDPKHLNDDVVKIDFEDVIAEPEGTHSFDGIWKASFTTFTVTKYWFYRLLSALFGIPMALIWGIYFAILSFLHIWAVVPCIKSFLIEIQCISRVYSIYVHTVCDPLFEAVGKIFSNVRINLQKEI
As to B1, the binding entry is reported as “binds”.
